For some assays here: A negative result means that nothing was seen under these conditions. For some assays here: At least one verdict was read from the data and is not stated in words by the source. For some assays here: For at least one entry, the source does not settle the construct or the ends of the probe. For some assays here: The comparison behind a weaker result is the experiment's own reference, which may not be listed here. For some assays here: Where a protein sequence is shown, tags need not be part of it.
Columns and labels:
BSA = BSA (UniProt P02769); experiment: mwPIFE; conditions: 5 mM Ca2+, room temp, 30 min: BamHI 10 mM Tris-HCl pH 8, 100 mM KCl, 0.02% Triton X-100, 0.1 mg/ml BSA, 5 mM EDTA/MgCl2/CaCl2, Ku 35 mM Tris-Cl pH 7.9, 5.5% glycerol, commercial protein, label: 5' biotin strand 1, 5' Cy3 strand 2
[1] = molecular target: T1, BamHI restriction endonuclease (UniProt P23940); experiment: mwPIFE; conditions: no divalent cation (5 mM EDTA), room temp, 30 min: BamHI 10 mM Tris-HCl pH 8, 100 mM KCl, 0.02% Triton X-100, 0.1 mg/ml BSA, 5 mM EDTA/MgCl2/CaCl2, Ku 35 mM Tris-Cl pH 7.9, 5.5% glycerol, commercial protein, label: 5' biotin strand 1, 5' Cy3 strand 2
T1 sequence (looked up, limits assumed): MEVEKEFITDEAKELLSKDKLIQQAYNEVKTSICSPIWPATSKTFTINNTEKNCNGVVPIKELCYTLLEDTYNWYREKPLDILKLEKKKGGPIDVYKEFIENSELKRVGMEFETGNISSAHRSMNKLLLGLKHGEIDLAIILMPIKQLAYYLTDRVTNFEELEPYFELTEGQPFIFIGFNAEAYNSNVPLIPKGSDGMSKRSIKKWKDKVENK

Amino acid sequences for entries named in this document (tags omitted). Residues count along the entry.
UniProt P02769, 25-607: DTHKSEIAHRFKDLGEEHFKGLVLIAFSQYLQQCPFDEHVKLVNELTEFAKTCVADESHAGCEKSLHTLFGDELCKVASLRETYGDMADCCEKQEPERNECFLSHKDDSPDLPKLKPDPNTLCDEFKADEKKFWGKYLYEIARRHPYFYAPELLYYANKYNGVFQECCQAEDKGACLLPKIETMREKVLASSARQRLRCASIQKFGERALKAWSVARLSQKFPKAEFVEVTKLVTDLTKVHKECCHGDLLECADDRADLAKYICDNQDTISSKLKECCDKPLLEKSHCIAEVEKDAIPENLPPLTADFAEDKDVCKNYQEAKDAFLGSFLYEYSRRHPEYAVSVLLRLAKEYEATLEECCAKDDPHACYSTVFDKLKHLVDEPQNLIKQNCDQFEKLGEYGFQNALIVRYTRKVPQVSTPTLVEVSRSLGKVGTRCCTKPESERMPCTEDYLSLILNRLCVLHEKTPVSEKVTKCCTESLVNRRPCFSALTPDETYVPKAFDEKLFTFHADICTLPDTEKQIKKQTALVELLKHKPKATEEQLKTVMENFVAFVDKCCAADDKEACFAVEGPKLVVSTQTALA

[2] = molecular target: T1, BamHI restriction endonuclease; experiment: competition with a labelled probe; conditions: Ca2+, mwPIFE, 1-10x excess, room temp, 30 min: BamHI 10 mM Tris-HCl pH 8, 100 mM KCl, 0.02% Triton X-100, 0.1 mg/ml BSA, 5 mM EDTA/MgCl2/CaCl2, Ku 35 mM Tris-Cl pH 7.9, 5.5% glycerol, commercial protein
[3] = system: XPF (truncated) + ERCC1 (truncated); experiment: competition with a labelled probe; conditions: mwPIFE, 1-100x excess, room temp, 30 min: BamHI 10 mM Tris-HCl pH 8, 100 mM KCl, 0.02% Triton X-100, 0.1 mg/ml BSA, recombinant protein
[4] = system: XPF (truncated) + ERCC1 (truncated); experiment: fluorescence anisotropy; conditions: FA: 10 mM Tris-HCl pH 8, 10 mM NaCl, 10% glycerol, 1 mM TCEP, 50 nM DNA, 25 C, recombinant protein
Ku70 + Ku80 = experiment: mwPIFE; conditions: both ends blocked by neutravidin, negligible PIFE, internal Cy3 after nt 15 of strand 1, room temp, 30 min: BamHI 10 mM Tris-HCl pH 8, 100 mM KCl, 0.02% Triton X-100, 0.1 mg/ml BSA, 5 mM EDTA/MgCl2/CaCl2, Ku 35 mM Tris-Cl pH 7.9, 5.5% glycerol, recombinant protein, label: 5' and 3' biotin-TEG on both strands, iCy3

CACAACGACCACCTAGATAGAGCCAAGCAGTTTACGTACCGTCATTCCCTTCCACGTCATCGAGCTACGGATCCA (double strand) [1_f/1_r (BamHI site 1 bp from Cy3)]
binding result (BSA): no binding

CACAACGACCACCTAGATGGATCCA (double strand) [Btn_25BamHI1_f/Cy3_25BamHI1_r]
binding result [1]: binds more weakly

CACAACGACGGATCCCACCTAGAT (double strand) [B competitor]
binding result [2]: binds

CAGCGCTCGG [10ss]
binding result ([3]; no inhibition, 5 mM …, Ku 35 mM Tris-Cl pH 7.9, 5.5% glycerol, single-stranded DNA): no binding | Kd ([4]; single-stranded DNA): 8.65 µM

CAGCGCTCGGTTTTTTTTTT / CCGAGCGCT [Y/10 (3' overhang)]
binding result ([3]; intermediate, 5 mM EDTA/MgCl2/CaCl2, Ku 35 mM Tris-Cl pH 7.9, 5.5% glycerol): binds more weakly | Kd [4]: 1.32 µM

TTGCATCCTTCACAACGACCACCTAGATAG (double strand) [BtnT_15_Cy3_15_BtnT (both ends blocked)]
binding result (Ku70 + Ku80): no binding

From PMC5180085
